Data source: PubChem BioAssay AID493246 (Drosophila RNAi Screening Center, 2011)

- Screen: 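Genes fly cells need to grow and stay alive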 (primary screen)
- Cell system: Drosophila Kc and S2R+ cells
- Knock-down reagent: long dsRNA against Drosophila genes
- Read-out: 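Raw, unnormalised count of remaining cells in each well; per-plate z-scores of cell number underlie the calls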
- Reading the numbers: Kc cell number and S2R+ cell number: higher = more cells remaining
- Call rule: 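Counted as a hit if cell number falls by a z-score of at least 3 within its plate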
In all, the deposit lists about 21,000 reagents; this is a random part of those that have a named target and a result. Over the whole deposit, 429 (2%) are marked active. 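Values are raw and not normalised between plates; calls rest on per-plate z-scores that were not deposited.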 Unmarked entries are inactive. Reagents against one gene are numbered here. The record does not give: the amount of reagent, the time to read-out.

Polr2C (GeneID 34796): Kc cell number, rep 1 = 1.45e6; Kc cell number, rep 2 = 1.48e6; S2R+ cell number, rep 1 = 1.10e6; S2R+ cell number, rep 2 = 1.22e6
gsb (GeneID 38005): Kc cell number, rep 1 = 1.65e6; Kc cell number, rep 2 = 1.51e6; S2R+ cell number, rep 1 = 1.36e6; S2R+ cell number, rep 2 = 1.40e6
SPARC (GeneID 43230): Kc cell number, rep 1 = 1.51e6; Kc cell number, rep 2 = 1.51e6; S2R+ cell number, rep 1 = 1.02e6; S2R+ cell number, rep 2 = 1.14e6
CG15912 (GeneID 31385): Kc cell number, rep 1 = 1.43e6; Kc cell number, rep 2 = 1.43e6; S2R+ cell number, rep 1 = 1.03e6; S2R+ cell number, rep 2 = 1.14e6
CG34049 (GeneID 3885620): Kc cell number, rep 1 = 1.59e6; Kc cell number, rep 2 = 1.64e6; S2R+ cell number, rep 1 = 1.05e6; S2R+ cell number, rep 2 = 1.19e6
Acph-1 (GeneID 48445): Kc cell number, rep 1 = 1.44e6; Kc cell number, rep 2 = 1.49e6; S2R+ cell number, rep 1 = 1.00e6; S2R+ cell number, rep 2 = 1.19e6
CG13069 (GeneID 50271): Kc cell number, rep 1 = 1.46e6; Kc cell number, rep 2 = 1.74e6; S2R+ cell number, rep 1 = 1.40e6; S2R+ cell number, rep 2 = 1.51e6
stmA (GeneID 35865) #1: Kc cell number, rep 1 = 1.39e6; Kc cell number, rep 2 = 1.48e6; S2R+ cell number, rep 1 = 9.78e5; S2R+ cell number, rep 2 = 1.08e6
stmA (GeneID 35865) #2: Kc cell number, rep 1 = 1.42e6; Kc cell number, rep 2 = 1.65e6; S2R+ cell number, rep 1 = 1.08e6; S2R+ cell number, rep 2 = 1.08e6
CG17290 (GeneID 36938): Kc cell number, rep 1 = 1.64e6; Kc cell number, rep 2 = 1.62e6; S2R+ cell number, rep 1 = 1.26e6; S2R+ cell number, rep 2 = 1.39e6
CG43867 (GeneID 31031) #1: Kc cell number, rep 1 = 1.29e6; Kc cell number, rep 2 = 1.45e6; S2R+ cell number, rep 1 = 1.17e6; S2R+ cell number, rep 2 = 1.11e6
CG43867 (GeneID 31031) #2: Kc cell number, rep 1 = 1.62e6; Kc cell number, rep 2 = 1.61e6; S2R+ cell number, rep 1 = 1.03e6; S2R+ cell number, rep 2 = 1.12e6
CG43867 (GeneID 31031) #3: Kc cell number, rep 1 = 1.66e6; Kc cell number, rep 2 = 1.70e6; S2R+ cell number, rep 1 = 9.82e5; S2R+ cell number, rep 2 = 1.15e6
CG43867 (GeneID 31031) #4: Kc cell number, rep 1 = 1.44e6; Kc cell number, rep 2 = 1.45e6; S2R+ cell number, rep 1 = 1.03e6; S2R+ cell number, rep 2 = 1.06e6

Single entries from the entries so far:
Polr2C (GeneID 34796), S2R+ cell number, rep 2 = 1.22e6
Result of stmA (GeneID 35865) #1 under “Kc cell number, rep 2”: 1.48e6
